Data published in paper doi:10.1101/287508.
These are yes or no findings as the source states them, for the method shown. Binding seen in cells or lysates may run through a third protein. Some binding calls cover weakened binding; strength is not graded here.

Amino acid sequences for entries named in this document (tags omitted). A change or cut given only in a name is not applied to a line headed by its entry. Residues count along the entry.
UniProt P53668: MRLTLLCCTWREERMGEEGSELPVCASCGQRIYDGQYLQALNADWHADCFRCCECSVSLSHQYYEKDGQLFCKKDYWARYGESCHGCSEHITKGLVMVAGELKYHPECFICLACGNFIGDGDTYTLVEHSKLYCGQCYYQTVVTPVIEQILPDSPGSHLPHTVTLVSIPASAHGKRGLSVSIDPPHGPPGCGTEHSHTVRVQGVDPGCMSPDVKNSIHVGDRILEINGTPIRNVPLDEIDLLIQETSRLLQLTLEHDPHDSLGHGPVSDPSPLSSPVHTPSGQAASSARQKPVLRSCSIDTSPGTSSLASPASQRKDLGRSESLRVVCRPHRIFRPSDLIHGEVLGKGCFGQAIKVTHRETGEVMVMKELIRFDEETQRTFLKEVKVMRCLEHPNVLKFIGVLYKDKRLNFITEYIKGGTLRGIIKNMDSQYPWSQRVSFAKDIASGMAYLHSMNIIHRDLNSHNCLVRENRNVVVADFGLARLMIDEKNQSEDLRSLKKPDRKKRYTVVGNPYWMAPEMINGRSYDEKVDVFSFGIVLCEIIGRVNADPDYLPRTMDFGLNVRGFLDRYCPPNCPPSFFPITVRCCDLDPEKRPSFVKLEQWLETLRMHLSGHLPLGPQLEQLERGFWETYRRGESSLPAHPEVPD
GST-LIMK1 ΔPDZ, Kinase (lacking residues 148–648): residues 1-147 of P53668
UniProt Q888Y7: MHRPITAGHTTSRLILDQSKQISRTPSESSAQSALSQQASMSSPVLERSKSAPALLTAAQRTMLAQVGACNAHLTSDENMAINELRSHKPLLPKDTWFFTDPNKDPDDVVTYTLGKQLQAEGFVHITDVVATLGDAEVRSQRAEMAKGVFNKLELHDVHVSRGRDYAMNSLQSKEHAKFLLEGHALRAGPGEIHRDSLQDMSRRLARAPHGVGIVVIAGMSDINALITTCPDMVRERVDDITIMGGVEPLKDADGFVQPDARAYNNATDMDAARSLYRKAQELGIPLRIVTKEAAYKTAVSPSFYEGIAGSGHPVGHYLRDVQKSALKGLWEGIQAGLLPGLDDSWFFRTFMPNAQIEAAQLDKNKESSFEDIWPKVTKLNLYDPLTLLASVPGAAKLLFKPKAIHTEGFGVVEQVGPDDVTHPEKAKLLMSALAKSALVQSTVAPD
UniProt P53667: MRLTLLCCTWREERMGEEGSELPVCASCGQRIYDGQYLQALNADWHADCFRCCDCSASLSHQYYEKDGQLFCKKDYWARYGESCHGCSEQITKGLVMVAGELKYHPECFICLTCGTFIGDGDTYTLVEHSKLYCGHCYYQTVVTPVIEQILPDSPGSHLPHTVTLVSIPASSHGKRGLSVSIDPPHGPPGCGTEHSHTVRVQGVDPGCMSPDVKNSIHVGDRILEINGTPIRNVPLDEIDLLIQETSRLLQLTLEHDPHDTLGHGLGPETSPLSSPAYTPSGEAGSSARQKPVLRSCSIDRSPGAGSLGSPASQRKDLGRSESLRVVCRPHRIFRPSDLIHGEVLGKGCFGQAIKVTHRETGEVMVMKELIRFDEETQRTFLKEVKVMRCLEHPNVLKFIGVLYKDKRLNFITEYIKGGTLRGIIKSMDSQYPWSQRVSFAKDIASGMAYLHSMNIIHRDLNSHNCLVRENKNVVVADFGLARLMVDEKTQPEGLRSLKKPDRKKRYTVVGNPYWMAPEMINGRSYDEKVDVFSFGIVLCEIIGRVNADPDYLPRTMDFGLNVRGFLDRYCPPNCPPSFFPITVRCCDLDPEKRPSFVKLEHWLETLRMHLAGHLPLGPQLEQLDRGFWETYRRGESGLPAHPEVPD
UniProt P23528: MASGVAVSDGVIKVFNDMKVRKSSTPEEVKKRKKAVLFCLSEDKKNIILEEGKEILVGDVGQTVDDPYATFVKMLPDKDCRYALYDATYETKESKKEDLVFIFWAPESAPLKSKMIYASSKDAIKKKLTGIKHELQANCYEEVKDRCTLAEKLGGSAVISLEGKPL

What was measured:
[1] = target: GST-LIMK1, mouse LIMK1 (full) (mouse) (UniProt P53668); test: pull-down
[2] = target: GST-LIMK1 ΔPDZ, Kinase (lacking residues 148–648) (mouse) (UniProt P53668); test: pull-down
[3] = target: Flag-tagged HopQ1 (Pseudomonas syringae pv. tomato DC3000) (UniProt Q888Y7); test: co-IP

Substance | binding [1] | binding [2] | binding [3]
Flag-tagged HopQ1 (from UniProt Q888Y7 1-447) | binds | binds | –
LIM domain kinase 1 (LIMK1), endogenous in 293T cells (from UniProt P53667 1-647) | – | – | binds
cofilin1, endogenous in 293T cells (from UniProt P23528 1-166) | – | – | no binding
